Assay results reported in the supplement of paper PMC6445147.
Single values of this data set are uncertain.

B1: human tRNA-Pro; a variant is named by its letters at N, in order (parent)
chain: GGCTCGTTGGTCTAGNGGTATGATTCTCGCTTAGGGTGCGAGAGGTCCCGGGTTCNNATCCCGGACGAGCCC

Columns and labels:
[1] = variants of: B1; test: tRNA Pol-III promoter activity, log2 (circRNA frequency / plasmid DNA frequency) (log2 ratio); higher = stronger promoter activity; conditions: HEK293T; construct: no Pol-II promoter ((-)CMV library)
[2] = variants of: B1; test: tRNA 3' processing efficiency (processed reads / all reads, maximum-likelihood estimate) (fraction); higher = more efficient 3' processing; conditions: HEK293T; construct: no Pol-II promoter ((-)CMV library)
[3] = variants of: B1; test: tRNA 5' processing efficiency (processed reads / all reads, maximum-likelihood estimate) (fraction); higher = more efficient 5' processing; conditions: HEK293T; construct: CMV Pol-II promoter ((+)CMV library, decapped)

Variant	tRNA Pol-III promoter activity (log2) [1]	tRNA 3' processing efficiency [2]	tRNA 5' processing efficiency [3]
GTA T19G T59A	4.44	0.6	
GAC T8A G15A T54C	5.15	0.57	
GAA T19C T53A T59A	4.93	0.25	
GAT T8C T59A	3.08	0.4	
GAA A14G T59G	1.02	0.28	
GGA T54A	1.61	0.34	0.13
GTA T54G	-0.865	0.5	
TAA A20G	-1.07	0.25	0.14
TAA A20G A58G	2.68	0.13	
AAA T54C A58C	5.03	0.7	
GAG A14G G18A	6.26	0.71	
GAA A20G A58T T59G	4.78	0.22	
TAA T53A	3.44	0.2	
CTA A14T A58C	6.03	0.13	
GAA T8G G15C A58G T59G	5.25	0.4	
TAG A14G	4.04	0.18	
GGT T59G	2.81	0.5	
GTG A20T	3.36	0.67	
GGA T53A T59G	5.99	0.06	
GAA A20T T53G	2.15	0.33	0.33
GAG A14C G18A	4.68	0.36	
GGA G18A A20T	2.45	0.25	
GAT A14G A58G	3.55	0.2	
GAA G15C T19A	0.104	0.5	
GAT T8C A20T	2.58	0.33	

Variant	tRNA Pol-III promoter activity (log2) [1]	tRNA 3' processing efficiency [2]	tRNA 5' processing efficiency [3]
GAA G15T T19A A58G	8.47	0.17	
GTA G9A A14G A58T	6.25	0.2	
TAT G15A	3.51	0.28	0.03
GGA G17T G18A A58T	6.25	0.4	
GGA A14G T54A	2.67	0.39	
GAT T8G T19G T59C	6.75	0.43	
CAA T53A T59A	3.5	0.56	0.22
GAA A14G A20C A58C	7.7	0.93	
TTA A14T	2.34	0.31	
TAA G15C C55T	3.45	0.25	
GTT C55A	1.62	0.4	
CGA T59G	3.77	0.4	
GTT G17A	2.94	0.2	
TAG A58G	3.26	0.3	
GTA G50A	7.2	0.33	
GAA T8C A14G A58C	4.84	0.38	
GAA A58T T59G	1.38	0.32	0.5
GAA T19C T53C	2.9	0.74	
GAA G9T A58T T59A	2.24	0.25	
TAG G15C	5.93	0.5	
GTA T8G T59G	1.77	0.25	
CTA A14G A58G	6.75	0.14	
GAA G18A A20T	1.07	0.29	0.4
GGA G17T T54A	4.94	0.25	
GTA G17T	1.15	0.34	

Variant	tRNA Pol-III promoter activity (log2) [1]	tRNA 3' processing efficiency [2]	tRNA 5' processing efficiency [3]
GAA G18T A20G	-0.878	0.25	
TAC A14G A58G	5.75	0.57	
TTA A20T	2.64	0.2	
GGA G9A T59G	3.26	0.2	
GAA A58C	0.759	0.41	0.33
GGA G17C T53A	3.93	0.17	
GCA T59C	2.27	0.44	
GAA T8C A14C T54A	6.1	0.33	
GAT G17T G18C A20G	6.03	0.25	
GTA T53A T59G	2.86	0.25	
GAA T8G G15T	0.384	0.67	
GAA T19G A58G	4.48	0.82	
GAA T8A A58T	-0.38	0.2	
ATA T19G	3.93	0.14	
GAA G15A T59A	2.69	0.08	
GAA G15T A20G T53A A58T	3.93	0.25	
GCA T19G A58T	1.84	0.25	
GGT A14C T59A	5.03	0.13	
GAA T8G A20G T54C	5.94	0.87	
GAC T8C	0.752	0.24	
GAA G17T A58G	0.469	0.54	
GAA T19A T53G	0.674	0.35	
GTA T19G	1.3	0.33	
AAG A58T	2.9	0.2	
GAA A14T A20T A58G	2.71	0.25	

Variant	tRNA Pol-III promoter activity (log2) [1]	tRNA 3' processing efficiency [2]	tRNA 5' processing efficiency [3]
TTA T19G A58G	7.16	0.04	
GAA G15T C55T T59C	3.36	0.4	
TAA G9T	-0.275	0.2	0.17
AAA T19G	0.92	0.58	
GGT A58G T59C	5.03	0.5	
AAA T54A T59C	10.8	0.06	
AAA T8C A58G	3.71	0.25	
GAA T8C T19A A58C	5.26	0.2	
GTA A14T T19A A58T	3.51	0.17	
ATA A14G A58G	6.25	0.3	
GAT G9C	1.39	0.47	
GTA T53C	3	0.86	0.17
GAT G2A	4.45	0.25	
GAA G15A T19A	0.0351	0.14	
GAT A20G A58G	3.93	0.33	
AAA C55T A58T	2.41	0.57	
GCA T19C A58T	1.42	0.25	
GTG A20G A58T	4.93	0.17	
GGA A14C T59G	5.21	0.42	
GAA T8C T19G C55G	3.62	0.25	
GGA T59C	2.32	0.25	
GAA G9C G17T T19G A20T T53C C55A T59G	2.93	0.5	
GAA T8C A14C T59G	6.25	0.4	
GAA G17T T59A	1.35	0.54	
TAG T19A	4.65	0.56	

Individual results from the results shown.
In tRNA 3' processing efficiency [2], GGA T59C is listed with 0.25
In tRNA 3' processing efficiency [2], TAA G9T is listed with 0.2
In tRNA 3' processing efficiency [2], TAG T19A is listed with 0.56
In tRNA 3' processing efficiency [2], AAA T19G is listed with 0.58
In tRNA 3' processing efficiency [2], GGT A58G T59C is listed with 0.5

(cont.)

Variant	tRNA Pol-III promoter activity (log2) [1]	tRNA 3' processing efficiency [2]	tRNA 5' processing efficiency [3]
GAA A14T T19A T59C	6.26	0.2	
GAT G9T G15T T54A	2.84	0.14	
GGT T19A C55T	5.94	0.25	
GAC G9T A58G	1.94	0.67	
GAA A14G G17T	-0.248	0.5	
TAT	2.64	0.35	0.33
CAG T59C	3.74	0.43	
GAT G15T	-0.0896	0.48	0.33
GAT T53G	-0.704	0.25	
TAA A20G A58T	3.85	0.87	0.5
GAG T8C A14C	3.62	0.25	
GAT G17A A20C	4.36	0.62	
CTA A14C G17A	7.94	0.73	
GAA G17T G18C T59A	4.34	0.25	
GTA G18T T59A	2.3	0.67	
TGA G15T T54A	6.26	0.2	
GAA A14G G15T T54C C55T	5.67	0.4	
ACA A58C	3.28	0.43	
GTA A14G T59C	3.88	0.24	
GGG G15C	4.36	0.2	
GTA G18T T53A	6.26	0.4	
GAA T8G A14G	0.425	0.81	
GAA A14C A58T T59C	4.93	0.25	
GAA G15A A58G	0.121	0.43	
GAA G9C G17C A20T	1.3	0.33	

Variant	tRNA Pol-III promoter activity (log2) [1]	tRNA 3' processing efficiency [2]	tRNA 5' processing efficiency [3]
CAT A14T	5.01	0.37	
GAA G18T T53A	1.01	0.11	
GGA G17T A58T	2.43	0.13	
GAA A14C G18C	0.228	0.86	
CAA T8C T59G	6.2	0.23	
GAA T8A G9C G15T G18C T19G A20T T53A T54A C55T	5.26	0.3	
GAA G15T G17A	-0.365	0.2	
TAA G17C	0.439	0.67	
GTA A58T	2.79	0.4	
GAA G2A	3.04	0.57	
GAA A14T T19A T53A	4.3	0.36	
GAA A14T T53G T59G	3.34	0.33	
GAA G9T	-5.41	0.5	0.1
TAA G15A T53A	8.07	0.06	
CAG A14G G15A	7.39	0.64	
GTA A14T	3.15	0.36	
GGA A14T A20G C55T	5.59	0.79	
GCA T8C A58T	5.53	0.5	
GAG G9A T59C	3.77	0.2	
CAA T19G A58T	2.92	0.25	
TTT G9A	4.67	0.2	
GCA G17A A20G	3.43	0.57	
GAA G9T G17T	-1.26	0.25	
AAG T8G A14C G17T A58T	7.64	0.92	
GAT G18T	0.0387	0.15	

Reprinted at random: two entries already listed, in no set order.
Variant	tRNA Pol-III promoter activity (log2) [1]	tRNA 3' processing efficiency [2]	tRNA 5' processing efficiency [3]
GAA G15A T19A	0.0351	0.14	
GGA G17T G18A A58T	6.25	0.4	

(next part)

Variant	tRNA Pol-III promoter activity (log2) [1]	tRNA 3' processing efficiency [2]	tRNA 5' processing efficiency [3]
GAA T8C T59A	0.0214	0.25	0.2
TTG	5.95	0.17	
GAA T19A A58T T59C	4.53	0.17	
CAA G15C T59G	5.12	0.25	
GAA G15A G18T T54A	1.87	0.17	
GTG T59C	6.2	0.06	
AGC T54A	4.93	0.17	
GAA A14T T19G T59G	5.16	0.29	
GAA C49A	5.93	0.25	
GAA A14T A58C T59C	5.51	0.33	
GAA A14T T59A	2.55	0.39	
CCA A58T T59C	4.62	0.13	
GAA A14G G18T T59C	5.45	0.13	
GAA A14T G15C T19A	3.93	0.5	
GAC A14T A58C	4.03	0.22	
TAA A14T T53C	3.93	0.1	
GAA T19A A58C T59C	3.93	0.25	
GAA A20T T53A T59C	7.34	0.26	
GAA A14T T53A	2.48	0.52	
GAA C70T	3.23	0.62	
GAA T53G	0.806	0.29	0.17
GAT G17C A20G	2.34	0.2	
ATA A20C	2.67	0.2	
GAA T8C A14C	1.62	0.27	
GGA C55T T59G	4.47	0.54	

Variant	tRNA Pol-III promoter activity (log2) [1]	tRNA 3' processing efficiency [2]	tRNA 5' processing efficiency [3]
GTA G17C T59C	5.53	0.33	
GAT A14G G17T	3.04	0.29	
GCA A20G A58G	2.79	0.2	
GAA T19A A58G	0.115	0.3	0.5
GAA T8G T53G	1.14	0.11	
GAA G17T T54G	-0.416	0.17	
GCA A14T T59A	3.19	0.2	
GAT A14T A58G	3.72	0.5	
AAA G17A A58T	2.71	0.25	
GAA G9A A14G G18C	3.86	0.75	
GCT T19G	4.68	0.2	0.5
TAA G15T T53A	2.94	0.67	
GGT T8G G17C	4.36	0.25	
GAA A14C G18A A58T	4.03	0.14	
CTA T54A T59A	5.26	0.2	
GTA T53C C55T	3.28	0.14	
GAC G17T T53C	2.33	0.25	
GTA G17T A58G	2.67	0.29	
GAA G15C T19G T59C	5.62	0.42	
GTA T19G T53G	5.03	0.33	
GAA T8G T54G A58T	2.43	0.17	
GTA A14G T59A	4.96	0.26	
GCC A20G	4.94	0.38	
TTA A14T T53A	4.62	0.29	
GAC T19A T59G	5.93	0.25	

Variant	tRNA Pol-III promoter activity (log2) [1]	tRNA 3' processing efficiency [2]	tRNA 5' processing efficiency [3]
GGA A20G T54A	4.03	0.17	
GGA A14C A20T	9.88	0.09	
GAT T8C T19G	3.55	0.2	
GTA G15A A58T	3.94	0.38	
AAT A14G	3.79	0.25	
TCG	4.77	0.2	
GAC A20G	1.74	0.3	
GAC G15C T53A	5.93	0.25	
GAA G15A T54A	1.02	0.3	
GTA G18C	0.709	0.4	
GAA G17A A20T A58C	1.28	0.25	
GAA A14C A58C	-0.0332	0.38	
GAT G9C G18A	3.41	0.22	
GAA G18A T53A	1.17	0.22	0.5
GCC A14G	3.45	0.33	
AAA T8G G15C G18A C55T A58T	5.49	0.18	
GCA T8G	0.527	0.5	
GTA A14T G17T A20T	4.36	0.4	
GCA A14T T59C	3.93	0.25	
ACA A58T	6.31	0.79	
TAA A14T T59G	2.08	0.4	
AAT A20T	2.49	0.43	0.06
GAT G15A T59C	3.71	0.25	
GAA G15A	-4.13	0.48	0.17
GTC G9A T54A	4.3	0.5	
